PubChem BioAssay AID1159578 | Peter MacCallum Cancer Centre | 2015

Aim: 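Knock-downs that alter how fast lymphatic endothelial cells migrate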 (primary screen)
Cell system: human lymphatic endothelial cells
Knock-down reagent: siRNA pool against human genes, 40 nM
Time to read-out: 48 h after transfection
Measurement: 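Cells stained with dye and imaged after a scratch; covered wound area and nuclei counted, duplicates averaged, migration set against mock wells and turned into a robust z-score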
Scale: migration robust z-score: higher = faster migration into the scratch; nuclei per well: higher = more cells in the well
Call rule: 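Pools averaging fewer than 3300 nuclei are never called; remaining pools count as changed when migration robust z lies outside -2 to 2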
Calls: active = migration changed; inactive = no migration change, or too few cells
Shown is a random part of about 18,000 deposited reagents. About 1,030 of them (5.7%) count as active. 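Inactive calls also include pools with fewer than 3300 nuclei, whose migration was not assessed.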 Raw values are not corrected between plates. A number with no mark means an inactive call. Not all columns of the deposit are shown. Reagent sequences are not shown.

Knock-down of ITGB6 resulted in: migration robust z-score -0.08; nuclei per well, duplicate mean 4544.
With knock-down of C16orf89, the record shows migration robust z-score 1.16; nuclei per well, duplicate mean 6462.
IL3RA scored migration robust z-score -0.52; nuclei per well, duplicate mean 6938.
Knock-down of GUCY2D came out at: migration robust z-score -1.95; nuclei per well, duplicate mean 3809.
Depletion of TRA2B resulted in: migration robust z-score 0.89; nuclei per well, duplicate mean 5595.
Silencing of CXCL1 gave: migration robust z-score -0.89; nuclei per well, duplicate mean 4310.
Silencing of LEP came out at: migration robust z-score 1.74; nuclei per well, duplicate mean 6100.
NPAS3 scored migration robust z-score 0.72; nuclei per well, duplicate mean 5612.
With knock-down of DDX3Y the results were migration robust z-score -0.18; nuclei per well, duplicate mean 4613.
Knock-down of MAPT resulted in: migration robust z-score -1.48; nuclei per well, duplicate mean 5681.
Knock-down of PTHLH came out at: migration robust z-score 2.09 (active); nuclei per well, duplicate mean 5132.
After knock-down of LRRC43 the results were migration robust z-score 0.18; nuclei per well, duplicate mean 6508.
For ZFPL1, the values are migration robust z-score -0.08; nuclei per well, duplicate mean 5545.
LLGL2 scored migration robust z-score 0.91; nuclei per well, duplicate mean 5020.
GUK1 showed migration robust z-score -1.01; nuclei per well, duplicate mean 4636.
Knock-down of TENT5B came out at: migration robust z-score 0.78; nuclei per well, duplicate mean 7584.
Against ARMC5, the values are migration robust z-score 0.16; nuclei per well, duplicate mean 5635.
After knock-down of TBX6, the record shows migration robust z-score -1.06; nuclei per well, duplicate mean 4482.
With knock-down of PHF20L1, the screen gave migration robust z-score 0.7; nuclei per well, duplicate mean 6467.
For CES5A the deposit lists migration robust z-score -0.8; nuclei per well, duplicate mean 5344.
After knock-down of DGAT2, the screen gave migration robust z-score -0.47; nuclei per well, duplicate mean 4280.

2 neighbouring reagents from above, quoted:
ITGB6 | migration robust z-score = -0.08; nuclei per well, duplicate mean = 4544
C16orf89 | migration robust z-score = 1.16; nuclei per well, duplicate mean = 6462
